Data: patent publication US7709481B2, “Phenyl-1,2,4-oxadiazolone derivatives, processes for their preparation and methods for their use as pharmaceuticals” (Sanofi-Aventis, priority 2005, dated 2010)
Some results were stated once for a whole list of compounds, not compound by compound.

Biological target: T1, human PPARalpha (Homo sapiens, UniProt Q07869)
T1 construct: human PPARalpha receptor (amino acids S167-Y468); expressed in transfected cells; plasmid pcDNA3
T1 sequence (Q07869 167-468): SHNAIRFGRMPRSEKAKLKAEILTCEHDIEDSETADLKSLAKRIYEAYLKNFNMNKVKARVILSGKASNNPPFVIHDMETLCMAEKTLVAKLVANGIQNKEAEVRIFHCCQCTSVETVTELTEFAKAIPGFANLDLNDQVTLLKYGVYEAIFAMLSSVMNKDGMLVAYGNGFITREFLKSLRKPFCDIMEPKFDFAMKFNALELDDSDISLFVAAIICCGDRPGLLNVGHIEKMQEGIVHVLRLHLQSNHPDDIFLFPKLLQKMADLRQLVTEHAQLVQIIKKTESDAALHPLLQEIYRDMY
Assay: Cellular PPARalpha assay (HEK PPARalpha reporter cell line, luciferase)
Format: cell-based
Details: nM to μM; read-out: PPARalpha EC50 values (range over examples)
Protocol: The activity of the compounds was tested as follows. The potency of substances which bind to human PPARalpha and activate it in an agonistic manner is analyzed using a stably transfected HEK cell line (HEK=human embryo kidney) which is referred to here as PPARalpha reporter cell line. It contains two genetic elements, a luciferase reporter element (pdeltaM-GAL4-Luc-Zeo) and a PPARalpha fusion protein (GR-GAL4-humanPPARalpha-LBD) which mediates expression of the luciferase reporter element depending on a PPARalpha ligand. The stably and constitutively expressed fusion protein GR-GAL4-humanPPARalpha-LBD binds in the cell nucleus of the PPARalpha reporter cell line via the GAL4 protein portion to the GAL4 DNA binding motifs 5′-upstream of the luciferase reporter element which is stably integrated in the genome of the cell line. There is only weak expression of the luciferase reporter gene in the absence of a PPARalpha ligand if fatty acid-depleted fetal calf serum (cs-FCS) is used in the assay. PPARalpha ligands bind and activate the PPARalpha fusion protein and thereby stimulate the expression of the luciferase reporter gene. The luciferase which is formed can be detected by means of chemiluminescence via an appropriate substrate.
The PPARalpha reporter cell line was prepared in two stages. Firstly, the luciferase reporter element was constructed and stably transfected into HEK cells. For this purpose, five binding sites of the yeast transcription factor GAL4 (Accession # AF264724) were cloned in 5′-upstream of a 68 bp-long minimal MMTV promoter (Accession # V01175). The minimal MMTV promoter section contains a CCAAT box and a TATA element in order to enable efficient transcription by RNA polymerase II. The cloning and sequencing of the GAL4-MMTV construct took place in analogy to the description of Sambrook J. et. al. (Molecular cloning, Cold Spring Harbor Laboratory Press, 1989). Then the complete Photinus pyralis gene (Accession # M15077) was cloned in 3′-downstream of the GAL4-MMTV element. After sequencing, the luciferase reporter element consisting of five GAL4 binding sites, MMTV promoter and luciferase gene was recloned into a plasmid which confers zeocin resistance in order to obtain the plasmid pdeltaM-GAL4-Luc-Zeo. This vector was transfected into HEK cells in accordance with the statements in Ausubel, F. M. et al. (Current protocols in molecular biology, Vol. 1-3, John Wiley & Sons, Inc., 1995).
In a second step, the PPARalpha fusion protein (GR-GAL4-humanPPARalpha-LBD was introduced into the stable cell clone described. For this purpose, initially the cDNA coding for the N-terminal 76 amino acids of the glucocorticoid receptor (Accession # P04150) was linked to the cDNA section coding for amino acids 1-147 of the yeast transcription factor GAL4 (Accession # P04386). The cDNA of the ligand-binding domain of the human PPARalpha receptor (amino acids S167-Y468; Accession # S74349) was cloned in at the 3′-end of this GR-GAL4 construct. The fusion construct prepared in this way (GR-GAL4-humanPPARalpha-LBD) was recloned into the plasmid pcDNA3 (Invitrogen) in order to enable constitutive expression therein by the cytomegalovirus promoter. This plasmid was linearized with a restriction endonuclease and stably transfected into the previously described cell clone containing the luciferase reporter element. The finished PPARalpha reporter cell line which contains a luciferase reporter element and constitutively expresses the PPARalpha fusion protein (GR-GAL4-human PPARalpha-LBD) was isolated by selection with zeocin (0.5 mg/ml) and G418 (0.5 mg/ml).
The activity of PPARalpha agonists is determined in a 3-day assay which is described below: […]

SMILES | EC50 [nM]
Cc1nc(-c2ccc(C(F)(F)F)nc2)sc1C(Cc1ccc(F)cc1)Oc1ccc(-c2noc(=O)[nH]2)c(Cl)c1 (stereo not shown) [Example 27, 3-(2-Chloro-4-{2-(4-fluoro-phenyl)-1-[4-methyl-2-(6-trifluoromethyl-pyridin-3-yl)-thiazol-5-yl]-ethoxy}-phenyl)-4H-[1,2,4]oxadiazol-5-one] | ≥ 10
CCC(Oc1ccc(-c2noc(=O)[nH]2)c(F)c1)c1sc([C@H]2CC[C@H](C(F)(F)F)CC2)nc1CN1CCC(C(F)(F)F)CC1 (stereo partly drawn) [Example 68, 3-(2-Fluoro-4-{1-[2-(trans-1,4-trifluoromethyl-cyclohexyl)-4-(4-trifluoromethyl-piperidin-1-ylmethyl)-thiazol-5-yl]-propoxy}-phenyl)-4H-1,2,4-oxadiazol-5-one] | ≥ 10
COc1cc(OCc2sc([C@H]3CC[C@H](C(F)(F)F)CC3)nc2C)c(F)cc1-c1noc(=O)[nH]1 [Example 50, 3-{5-Fluoro-2-methoxy-4-[4-methyl-2-(trans-1,4-trifluoromethyl-cyclohexyl)-thiazol-5-ylmethoxy]-phenyl}-4H-1,2,4-oxadiazol-5-one] | ≥ 10
Cc1nc(-c2ccc(C(F)(F)F)nc2)sc1C(OCc1ccc(-c2noc(=O)[nH]2)c(C2CC2)c1)C(F)(F)F (stereo not shown) [Example 38, 3-(2-Cyclopropyl-4-{2,2,2-trifluoro-1-[4-methyl-2-(6-trifluoromethyl-pyridin-3-yl)-thiazol-5-yl]-ethoxymethyl}-phenyl)-4H-[1,2,4]oxadiazol-5-one] | ≥ 10
CO[C@H]1CC[C@H](c2nc(C)c(COc3ccc(-c4noc(=O)[nH]4)c(Cl)c3)o2)CC1 [Example 4, 3-{2-Chloro-4-[2-(trans-1,4-methoxy-cyclohexyl)-4-methyl-oxazol-5-ylmethoxy]-phenyl}-4H-[1,2,4]oxadiazol-5-one] | ≥ 10
Cc1nc([C@H]2CC[C@H](C(F)(F)F)CC2)sc1C(OCc1ccc(-c2noc(=O)[nH]2)c(F)c1)C(F)(F)F (stereo partly drawn) [Example 30, 3-(2-Fluoro-4-{2,2,2-trifluoro-1-[4-methyl-2-(trans-1,4-trifluoromethyl-cyclohexyl)-thiazol-5-yl]-ethoxymethyl}-phenyl)-4H-[1,2,4]oxadiazol-5-one] | ≥ 10
COCc1nc(C2CCC(F)(F)CC2)sc1COc1ccc(-c2noc(=O)[nH]2)c(Cl)c1 [Example 9, 3-{2-Chloro-4-[2-(4,4-difluoro-cyclohexyl)-4-methoxymethyl-thiazol-5-ylmethoxy]-phenyl}-4H-[1,2,4]oxadiazol-5-one] | ≥ 10
COc1cc(OCc2sc([C@H]3CC[C@H](C(F)(F)F)CC3)nc2C)ccc1-c1noc(=O)[nH]1 [Example 48, 3-{2-Methoxy-4-[4-methyl-2-(trans-1,4-trifluoromethyl-cyclohexyl)-thiazol-5-ylmethoxy]-phenyl}-4H-1,2,4-oxadiazol-5-one] | ≥ 10
O=c1[nH]c(-c2ccc(OCc3coc(C4CCCCC4)n3)cc2Cl)no1 [Example 21, 3-[2-Chloro-4-(2-cyclohexyl-oxazol-4-ylmethoxy)-phenyl]-4H-[1,2,4]oxadiazol-5-one] | ≥ 10
COCc1nc(CCC2CCCCC2)sc1COc1ccc(-c2noc(=O)[nH]2)c(Cl)c1 [Example 10, 3-{2-Chloro-4-[2-(2-cyclohexyl-ethyl)-4-methoxymethyl-thiazol-5-ylmethoxy]-phenyl}-4H-[1,2,4]oxadiazol-5-one] | ≥ 10
Cc1nc(-c2ccc(C(F)(F)F)nc2)sc1C(OCc1ccc(-c2noc(=O)[nH]2)c(F)c1)C(F)(F)F (stereo not shown) [Example 31, 3-(2-Fluoro-4-{2,2,2-trifluoro-1-[4-methyl-2-(6-trifluoromethyl-pyridin-3-yl)-thiazol-5-yl]-ethoxymethyl}-phenyl)-4H-[1,2,4]oxadiazol-5-one] | ≥ 10
CCC(F)(F)C(OCc1ccc(-c2noc(=O)[nH]2)cc1)c1sc(-c2ccc(C(F)(F)F)nc2)nc1C (stereo not shown) [Example 40, 3-(4-{2,2-Difluoro-1-[4-methyl-2-(6-trifluoromethyl-pyridin-3-yl)-thiazol-5-yl]-butoxymethyl}-phenyl)-4H-[1,2,4]oxadiazol-5-one] | ≥ 10
COCc1nc(C2CCCCC2)oc1COc1ccc(-c2noc(=O)[nH]2)c(Cl)c1 [Example 16, 3-[2-Chloro-4-(2-cyclohexyl-4-methoxymethyl-oxazol-5-ylmethoxy)-phenyl]-4H-[1,2,4]oxadiazol-5-one] | ≥ 10
Cc1nc(-c2ccc(C(F)(F)F)nc2)sc1C(OCc1ccc(-c2noc(=O)[nH]2)c(Cl)n1)C(F)(F)F (stereo not shown) [Example 37, 3-(2-Chloro-6-{2,2,2-trifluoro-1-[4-methyl-2-(6-trifluoromethyl-pyridin-3-yl)-thiazol-5-yl]-ethoxymethyl}-pyridin-3-yl)-4H-[1,2,4]oxadiazol-5-one] | ≥ 10
CCC(F)(F)C(OCc1ccc(-c2noc(=O)[nH]2)c(Cl)c1)c1sc(-c2ccc(C(F)(F)F)nc2)nc1C (stereo not shown) [Example 41, 3-(2-Chloro-4-{2,2-difluoro-1-[4-methyl-2-(6-trifluoromethyl-pyridin-3-yl)-thiazol-5-yl]-butoxymethyl}-phenyl)-4H-[1,2,4]oxadiazol-5-one] | ≥ 10
Cc1nc(-c2cc3ccccc3s2)sc1COc1ccc(-c2noc(=O)[nH]2)c(Cl)c1 [Example 44, 3-[4-(2-Benzo[b]thiophen-2-yl-4-methyl-thiazol-5-ylmethoxy)-2-chloro-phenyl]-2H-[1,2,4]oxadiazol-5-one] | ≥ 10
COCc1nc(C2CCCCCC2)sc1COc1ccc(-c2noc(=O)[nH]2)c(Cl)c1 [Example 11, 3-[2-Chloro-4-(2-cycloheptyl-4-methoxymethyl-thiazol-5-ylmethoxy)-phenyl]-4H-[1,2,4]oxadiazol-5-one] | ≥ 10
Cc1nc(-c2ccc(C(F)(F)F)nc2)sc1COc1ccc(-c2noc(=O)[nH]2)c(Cl)c1 [Example 23, 3-{2-Chloro-4-[4-methyl-2-(6-trifluoromethyl-pyridin-3-yl)-thiazol-5-ylmethoxy]-phenyl}-4H-[1,2,4]oxadiazol-5-one] | ≥ 10
CCC(Oc1ccc(-c2noc(=O)[nH]2)c(OC(F)F)c1)c1sc([C@H]2CC[C@H](C(F)(F)F)CC2)nc1CN1CCC(C(F)(F)F)CC1 (stereo partly drawn) [Example 61, 3-(2-Difluoromethoxy-4-{1-[2-(trans-1,4-trifluoromethyl-cyclohexyl)-4-(4-trifluoromethyl-piperidin-1-ylmethyl)-thiazol-5-yl]-propoxy}-phenyl)-4H-1,2,4-oxadiazol-5-one] | ≥ 10
CCOCc1nc(C2CCCCC2)oc1COc1ccc(-c2noc(=O)[nH]2)c(Cl)c1 [Example 15, 3-[2-Chloro-4-(2-cyclohexyl-4-ethoxymethyl-oxazol-5-ylmethoxy)-phenyl]-4H-[1,2,4]oxadiazol-5-one] | ≥ 10
COc1cc(OCc2sc([C@H]3CC[C@H](C(F)(F)F)CC3)nc2CN2CCC(C(F)(F)F)CC2)c(F)cc1-c1noc(=O)[nH]1 [Example 58, 3-{5-Fluoro-2-methoxy-4-[2-(trans-1,4-trifluoromethyl-cyclohexyl)-4-(4-trifluoromethyl-piperidin-1-ylmethyl)-thiazol-5-ylmethoxy]-phenyl}-4H-1,2,4-oxadiazol-5-one] | ≥ 10
Cc1nc(-c2ccc(C(F)(F)F)nc2)sc1C(OCc1ccc(-c2noc(=O)[nH]2)cc1)C(F)(F)F (stereo not shown) [Example 32, 3-(4-{2,2,2-Trifluoro-1-[4-methyl-2-(6-trifluoromethyl-pyridin-3-yl)-thiazol-5-yl]-ethoxymethyl}-phenyl)-4H-[1,2,4]oxadiazol-5-one] | ≥ 10
